PubChem BioAssay AID1224828, NIAID – 2016

Test: 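Find genes required for NF-kappaB p65 moving into the nucleus after LPS in mouse macrophages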 (primary screen)
System: mouse RAW264.7 G9 macrophage reporter cells (GFP-p65, Tnf promoter-mCherry)
Reagent: siRNA pool against mouse genes, 100 nM
Time to read-out: 2 days siRNA transfection, then 40 min LPS before fixation
Treatment: LPS (Salmonella minnesota R595) at 10 ng/ml
Read-out: 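Microscopy ratio of nuclear to perinuclear-ring GFP-p65 signal, scaled to the plate median; gene score is the average of two replicate robust z-scores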
Direction: p65 translocation robust z-score: higher = more nuclear NF-kappaB p65 after LPS than the plate median; nuclear/cytoplasmic p65 ratio: higher = more nuclear NF-kappaB p65
Active means: 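Active if robust z is above 3.3 (negative regulators) or below -1.56, the Tlr4 control median (positive regulators); activity score 50 or more; control wells not called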
Meaning of the calls: active = hit (p65 shift raised or lowered); inactive = no clear change
The deposit covers about 17,000 reagents; below is a random part of them. Over the whole deposit, 762 (4.5%) were called active. 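Active calls include both raised and lowered p65 entry, mostly lowered; wells with fewer than 50 cells lack a z-score.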 Raw values are not corrected between plates. Reagent sequences are not shown.

| Target gene | p65 translocation robust z-score | nuclear/cytoplasmic p65 ratio, rep 1 | nuclear/cytoplasmic p65 ratio, rep 2 | low cell count flag | Outcome |
| --- | --- | --- | --- | --- | --- |
| Tomm40 (translocase of outer mitochondrial membrane 40) | – | 1.31 | 0 | fewer than 50 cells per well; well left out of scoring | inactive |
| Or4k44 (olfactory receptor family 4 subfamily K member 44) | 2.46 | 1.53 | 2.13 | enough cells to score | inactive |
| Snrnp70 (small nuclear ribonucleoprotein 70 (U1)) | -0.74 | 1.34 | 1.15 | enough cells to score | inactive |
| Vmn2r81 (vomeronasal 2, receptor 81) | -0.57 | 1.5 | 1.62 | enough cells to score | inactive |
| 5830427D03Rik (retired record) | 0.45 | 1.39 | 1.52 | enough cells to score | inactive |
| Umod (uromodulin) | – | 1.24 | 1.21 | fewer than 50 cells per well; well left out of scoring | inactive |
| B3gnt4 | 1.83 | 1.8 | 1.84 | enough cells to score | inactive |
| Tbc1d12 (TBC1D12: TBC1 domain family, member 12) | -0.66 | 1.28 | 1.13 | enough cells to score | inactive |
| Mnx1 (motor neuron and pancreas homeobox 1) | 1.1 | 1.5 | 1.59 | enough cells to score | inactive |
| Or5b94 (olfactory receptor family 5 subfamily B member 94) | – | 1.47 | 1.27 | fewer than 50 cells per well; well left out of scoring | inactive |
| Zscan22 (zinc finger and SCAN domain containing 22) | 0.44 | 1.7 | 1.61 | enough cells to score | inactive |
| Dglucy (D-glutamate cyclase) | -1.71 | 1.22 | 1.3 | enough cells to score | active |
| Pcdha4 (protocadherin alpha 4) | 0.17 | 1.46 | 1.26 | enough cells to score | inactive |
| Eya2 (EYA transcriptional coactivator and phosphatase 2) | 1.05 | 1.63 | 1.48 | enough cells to score | inactive |
| Mmp28 (matrix metallopeptidase 28 (epilysin)) | -1.12 | 1.3 | 1.19 | enough cells to score | inactive |
| Tpbpb (trophoblast specific protein beta) | 0.15 | 1.38 | 1.26 | enough cells to score | inactive |
| Creb3l1 (cAMP responsive element binding protein 3-like 1) | -2.06 | 1.27 | 1.39 | enough cells to score | active |
| Chst15 (carbohydrate sulfotransferase 15) | – | 1.17 | 1.3 | fewer than 50 cells per well; well left out of scoring | inactive |
| Zmat4 (zinc finger, matrin type 4) | -2.09 | 1.17 | 1.22 | enough cells to score | active |
| Exog (exo/endonuclease G) | 0.73 | 1.68 | 1.58 | enough cells to score | inactive |
| Rapgef2 (Rap guanine nucleotide exchange factor (GEF) 2) | -0.3 | 1.49 | 1.15 | enough cells to score | inactive |
| Cfap74 (cilia and flagella associated protein 74) | – | 1 | 1.47 | fewer than 50 cells per well; well left out of scoring | inactive |
| Usp9x (ubiquitin specific peptidase 9, X chromosome) | -0.32 | 1.49 | 1.44 | enough cells to score | inactive |
| Rubcn | -0.1 | 1.37 | 1.41 | enough cells to score | inactive |
| Ccr10 (C-C motif chemokine receptor 10) | 1.12 | 1.62 | 1.79 | enough cells to score | inactive |
| Cyp46a1 (cytochrome P450, family 46, subfamily a, polypeptide 1) | -0.33 | 1.53 | 1.72 | enough cells to score | inactive |
| Tas2r109 (taste receptor, type 2, member 109) | -0.12 | 1.35 | 1.01 | enough cells to score | inactive |
| Ttc39b (tetratricopeptide repeat domain 39B) | – | 1.69 | 1.46 | fewer than 50 cells per well; well left out of scoring | inactive |
| Nbn (nibrin) | -0.69 | 1.29 | 1.26 | enough cells to score | inactive |
| A930025A13Rik (RIKEN cDNA A930025A13 gene) | 0.15 | 1.45 | 1.49 | enough cells to score | inactive |
| H2ap (H2A.P histone) | -1.14 | 1.15 | 1.27 | enough cells to score | inactive |
| Nudt16 (nudix hydrolase 16) | – | 1.38 | 1.41 | fewer than 50 cells per well; well left out of scoring | inactive |
| Il34 (interleukin 34) | -1.91 | 1.14 | 1.06 | enough cells to score | active |
| Gnai2 (G protein subunit alpha i2) | -0.31 | 1.33 | 1.4 | enough cells to score | inactive |
| Mtg1 (mitochondrial ribosome-associated GTPase 1) | – | 1.04 | 1.57 | fewer than 50 cells per well; well left out of scoring | inactive |
| Ttc33 (tetratricopeptide repeat domain 33) | – | 1.32 | 1.32 | fewer than 50 cells per well; well left out of scoring | inactive |
| Idi2 (isopentenyl-diphosphate delta isomerase 2) | – | 1.31 | 1.2 | fewer than 50 cells per well; well left out of scoring | inactive |
| Was (Wiskott-Aldrich syndrome) | -1.86 | 1.35 | 1.23 | enough cells to score | active |
| Nudt12 (nudix hydrolase 12) | 2.38 | 2.1 | 1.86 | enough cells to score | inactive |
| Selenoi (selenoprotein I) | -0.79 | 1.46 | 1.42 | enough cells to score | inactive |

Reagents listed so far marked active, once more:
| Target gene | p65 translocation robust z-score | nuclear/cytoplasmic p65 ratio, rep 1 | nuclear/cytoplasmic p65 ratio, rep 2 | low cell count flag | Outcome |
| --- | --- | --- | --- | --- | --- |
| Dglucy (D-glutamate cyclase) | -1.71 | 1.22 | 1.3 | enough cells to score | active |
| Creb3l1 (cAMP responsive element binding protein 3-like 1) | -2.06 | 1.27 | 1.39 | enough cells to score | active |
| Zmat4 (zinc finger, matrin type 4) | -2.09 | 1.17 | 1.22 | enough cells to score | active |
| Il34 (interleukin 34) | -1.91 | 1.14 | 1.06 | enough cells to score | active |
| Was (Wiskott-Aldrich syndrome) | -1.86 | 1.35 | 1.23 | enough cells to score | active |
